Here are results for 1 substance from doi:10.1101/2025.10.21.683757.

These are yes or no findings as the source states them, for the method shown. In cells and extracts the contact can be indirect. A result given as binding can be weak or reduced; the word gives no strength. Tags and fused reporters may be left off the sequences shown.

Assay [1] deals with T1, JAKMIP1 N-terminus-mCherry fusion protein (expressed in SH-SY5Y cells) (UniProt Q96N16).
T1 sequence: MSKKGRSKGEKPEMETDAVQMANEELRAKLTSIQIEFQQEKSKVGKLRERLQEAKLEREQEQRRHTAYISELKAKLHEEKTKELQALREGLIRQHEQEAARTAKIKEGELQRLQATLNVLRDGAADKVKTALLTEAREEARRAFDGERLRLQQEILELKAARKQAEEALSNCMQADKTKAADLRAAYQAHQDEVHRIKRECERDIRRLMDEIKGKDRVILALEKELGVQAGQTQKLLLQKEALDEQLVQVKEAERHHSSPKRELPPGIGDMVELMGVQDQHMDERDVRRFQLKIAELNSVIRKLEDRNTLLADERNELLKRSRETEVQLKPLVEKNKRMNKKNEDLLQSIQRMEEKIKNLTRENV
In words: co-IP.

For assay [2], the target named is T2, JAKMIP1 C-terminus-mCherry fusion protein (expressed in SH-SY5Y cells) (UniProt Q96N16).
T2 sequence: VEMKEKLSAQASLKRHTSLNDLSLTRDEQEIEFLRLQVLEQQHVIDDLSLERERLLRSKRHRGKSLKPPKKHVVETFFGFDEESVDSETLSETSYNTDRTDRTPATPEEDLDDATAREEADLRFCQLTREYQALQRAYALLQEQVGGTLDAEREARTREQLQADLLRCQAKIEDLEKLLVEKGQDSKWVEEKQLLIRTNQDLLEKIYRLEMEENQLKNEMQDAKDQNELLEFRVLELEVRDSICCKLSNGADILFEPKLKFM
The experiment in a line: co-IP.

Turning to “β-Tubulin (human (endogenous in SH-SY5Y))”, the binding entry in assay [1] and in assay [2] was “binds” each time.
